In paper PMC11784013, “Potassium molybdate blocks APN-dependent coronavirus entry by degrading receptor via PIK3C3-mediated autophagy” (Journal of Virology, 2024) one finds binding data, which are given here for two substances.

Sequences of proteins named here, by UniProt entry; tags and fusion partners are left off.
UniProt F1SSN7: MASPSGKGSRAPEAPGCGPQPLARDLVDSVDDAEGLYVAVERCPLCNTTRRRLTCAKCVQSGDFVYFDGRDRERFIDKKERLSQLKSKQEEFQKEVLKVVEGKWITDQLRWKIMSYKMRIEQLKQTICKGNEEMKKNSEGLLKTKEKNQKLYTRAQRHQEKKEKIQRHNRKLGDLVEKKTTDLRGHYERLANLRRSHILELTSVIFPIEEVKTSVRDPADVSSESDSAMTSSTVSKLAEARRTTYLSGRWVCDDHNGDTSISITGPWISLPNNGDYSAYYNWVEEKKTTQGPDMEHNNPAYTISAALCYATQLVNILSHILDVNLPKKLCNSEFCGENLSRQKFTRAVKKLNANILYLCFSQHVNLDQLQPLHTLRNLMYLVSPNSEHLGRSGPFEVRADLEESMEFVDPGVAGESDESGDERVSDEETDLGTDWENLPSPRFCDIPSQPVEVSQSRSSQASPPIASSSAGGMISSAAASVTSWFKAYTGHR
UniProt Q4A1L5: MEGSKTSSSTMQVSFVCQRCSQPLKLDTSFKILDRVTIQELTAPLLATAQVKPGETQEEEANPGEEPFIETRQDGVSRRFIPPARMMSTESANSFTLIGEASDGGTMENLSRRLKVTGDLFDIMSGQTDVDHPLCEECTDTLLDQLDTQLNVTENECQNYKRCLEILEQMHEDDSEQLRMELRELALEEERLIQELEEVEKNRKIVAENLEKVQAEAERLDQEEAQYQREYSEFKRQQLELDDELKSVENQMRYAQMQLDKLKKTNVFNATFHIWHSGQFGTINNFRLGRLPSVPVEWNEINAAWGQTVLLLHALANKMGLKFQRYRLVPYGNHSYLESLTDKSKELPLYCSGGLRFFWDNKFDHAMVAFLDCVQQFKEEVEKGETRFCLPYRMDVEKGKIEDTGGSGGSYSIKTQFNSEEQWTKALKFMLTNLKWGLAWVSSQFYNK

Assay [1] deals with His-ATG14 (porcine autophagy-related gene 14) (porcine) (UniProt F1SSN7). The assay can be described thus: co-IP.
Assay [2] deals with Flag-BECN1 (porcine Beclin-1) (porcine) (UniProt Q4A1L5). Briefly: co-IP.

No constants are given. Whether binding was seen depends on the method and setting. Binding seen in cells or lysates may run through a third protein. Some results given as binding are weak or reduced against the parent protein; the word gives no strength.

Regarding “Flag-BECN1 (porcine Beclin-1) (from UniProt Q4A1L5 1-448)”, the binding entry in assay [1] is given as “binds”.

Take “His-ATG14 (porcine autophagy-related gene 14) (from UniProt F1SSN7 1-492)”: the binding result in assay [2] is on record as “binds”.
